Assay results: article PMC10003451, “Phosphorylated Peptide Derived from the Myosin Phosphatase Target Subunit Is a Novel Inhibitor of Protein Phosphatase-1” (International Journal of Molecular Sciences, 2023)
No constants are given. Whether binding was seen depends on the method and setting. Binding can be weak; no strength is given.

Molecular target: recombinant protein phosphatase-1 catalytic subunit delta (PP1cδ)
Test: saturation transfer difference NMR; 1.3-1.5 mM peptide with 13.3-14.4 µM rPP1cα or 14-15 µM rPP1cδ in D2O, 10 mM imidazole pH 6.5, 150 mM NaCl; 293 K; irradiation of PP1c resonances at -1.3 ppm; qualitative; both purified

- binding: binds
B1: P-Thr696-MYPT1^690−701 (phosphorylated peptide of the inhibitory region of myosin phosphatase target subunit-1) (peptide)
peptide: RQSRRSTQGVTL
modifications: phosphothreonine at 696 (pT696)
